From PMC8872419
These are yes or no findings as the source states them, for the method shown. Binding seen in cells or lysates may run through a third protein. Some binding calls cover weakened binding; strength is not graded here.

Sequences of proteins named here, by UniProt entry; tags and fusion partners are left off. A change or cut given only in a name is not applied to a line headed by its entry.
UniProt Q16637: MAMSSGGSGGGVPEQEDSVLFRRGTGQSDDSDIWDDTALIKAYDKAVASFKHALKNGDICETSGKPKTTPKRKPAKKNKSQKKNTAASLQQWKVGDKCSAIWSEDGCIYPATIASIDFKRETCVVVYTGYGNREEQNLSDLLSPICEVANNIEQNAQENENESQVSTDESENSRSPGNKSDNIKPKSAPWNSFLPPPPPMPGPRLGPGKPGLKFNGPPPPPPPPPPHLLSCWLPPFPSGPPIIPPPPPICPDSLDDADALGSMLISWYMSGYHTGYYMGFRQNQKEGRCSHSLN

Tests used:
Assay in all cases: co-IP; lysate (1 mg) of HeLa cells 24 h after transfection, RIPA buffer without SDS; anti-myc-tag antibody on Dynabeads Protein A; washed three times; blots with anti-myc-tag and anti-SMN antibodies; band ratio End-SMN/Exo-SMN, in triplicate
[1] = target: mutated SMN1 protein with Y277C, myc-tagged (exogenous) (human) (UniProt Q16637)
[2] = target: mutated SMN1 protein with E134K, myc-tagged (exogenous) (human) (UniProt Q16637)
[3] = target: mutated SMN1 protein with Y276H, myc-tagged (exogenous) (human) (UniProt Q16637)

Measured: binding

endogenous FL-SMN1 and/or FL-SMN2 protein (endogenous SMN protein) (from UniProt Q16637 1-294)
binds: [1] | [2] | [3]
